Laboratory results: PMC11402830
No constants are given. Whether binding was seen depends on the method and setting. Some results given as binding are weak or reduced against the parent protein; the word gives no strength.

Molecular target: T1, human peptidyl arginine deiminase 6 (human), Q6TGC4
T1 chain: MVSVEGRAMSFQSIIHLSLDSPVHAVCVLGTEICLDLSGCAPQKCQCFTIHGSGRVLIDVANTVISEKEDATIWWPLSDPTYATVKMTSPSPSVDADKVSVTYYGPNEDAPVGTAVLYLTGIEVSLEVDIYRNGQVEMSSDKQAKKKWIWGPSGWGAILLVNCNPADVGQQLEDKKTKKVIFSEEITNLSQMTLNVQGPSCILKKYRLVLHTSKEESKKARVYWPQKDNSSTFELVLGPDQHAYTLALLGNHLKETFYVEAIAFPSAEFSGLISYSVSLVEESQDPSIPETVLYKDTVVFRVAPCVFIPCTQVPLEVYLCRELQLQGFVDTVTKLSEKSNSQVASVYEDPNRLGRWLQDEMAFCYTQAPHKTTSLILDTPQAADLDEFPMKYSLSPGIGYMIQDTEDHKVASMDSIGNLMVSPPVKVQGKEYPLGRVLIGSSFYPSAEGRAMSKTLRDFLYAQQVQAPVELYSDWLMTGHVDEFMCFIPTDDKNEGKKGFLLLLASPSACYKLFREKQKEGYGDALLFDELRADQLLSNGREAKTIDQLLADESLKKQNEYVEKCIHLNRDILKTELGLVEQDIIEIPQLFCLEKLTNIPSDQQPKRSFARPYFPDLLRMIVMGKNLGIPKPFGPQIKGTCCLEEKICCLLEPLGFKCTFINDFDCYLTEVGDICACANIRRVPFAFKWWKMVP
Assay: crystal structure; hPADI6 at 5 mg/mL, sitting drop at 20 °C, 20.9 % PEG3350, 0.2 M KSCN, 0.1 M Bis-Tris propane pH 6.5; no Ca2+; 2.44 Å; two chains (A, B); both purified
Details: remark: other sources report otherwise

binding: binds
B1: human peptidyl arginine deiminase 6, Q6TGC4 1-694 (natural protein)
chain: T1 chain
